Measurements as given in the supplement of paper PMC11348887.
Structures can show the parent of a compound that is named as a salt. The list shows a part of the results. Most values lie at the level of the controls, where differences are scatter.

tested on: hPSC-derived cortical neurons (WA09); assay: nucleus roundness z-score vs screen plate; higher = rounder nuclei (more mature); details: 5 µM; treatment: days 7-14 after plating, readout day 21

SMILES | nucleus roundness z-score
CNC[C@H](O)c1cccc(O)c1 [Phenylephrine HCl] | -1.88
Cc1c(C(=O)NN2CCCCC2)nn(-c2ccc(Cl)cc2Cl)c1-c1ccc(I)cc1 | 0.0489
Cc1cnc(NC(=O)Nc2cc(Br)c(C)cc2OC[C@@H]2CNCCO2)cn1 | 0.1
CN(C)CCN1C(=O)c2cccc3cc(N)cc(c23)C1=O [Amonafide] | -0.41
Cc1oncc1C(=O)Nc1ccc(C(F)(F)F)cc1 [Leflunomide] | 0.529
O=C(NNc1ccccc1)c1ccncc1 | -1.14
CN1CCC(COc2cnc(-c3cccc(Cn4nc(-c5cccc(C#N)c5)ccc4=O)c3)nc2)CC1 | 0.377
O=C(Nc1cccc(C(F)(F)F)c1)Nc1cc(S(=O)(=O)NC2CC2)ccc1-c1ccsc1 | -0.434
O=C(O)CCCCCCCC(=O)O [Azelaic acid] | -0.267
CN1CCN(C(=O)/C=C/c2ccc([N+](=O)[O-])o2)CC1 | -0.925
Cc1ccc(C(=O)N(CCCN)[C@@H](c2nc3cc(Cl)ccc3c(=O)n2Cc2ccccc2)C(C)C)cc1 | -7.45
Nc1ccc(C(=O)NCC(=O)O)cc1 [4-Aminohippuric Acid] | 0.827
CC(=O)NC[C@H]1CN(c2ccc(N3CCOCC3)c(F)c2)C(=O)O1 [Linezolid] | 0.78
Cc1nn(C)c(COc2ccc(N3CCN(S(=O)(=O)N(C)C)CC3)cc2)c1-c1cccc2c(CCCOc3cccc4ccccc34)c(C(=O)O)n(CCN3CCOCC3)c12 | 1.22
O=C1CN(/N=C/c2ccc([N+](=O)[O-])o2)C(=O)N1 [Nitrofurantoin] | -1.08
